Results as given in patent publication US10538567B2, “Compounds as peptidic trigonal GLP1/glucagon/GIP receptor agonists” (priority 2016, dated 2020).
Some entries share one result that the patent states for a list of compounds. Numbered stars: 1 amine (or outer) side, 2 acyl side, 3 side chain; on linkers, the order of the positions; unused ones are H or OH. Square brackets hold non-standard residues; d marks the D form. Side chains are listed from the residue outwards. Peptide text beside a SMILES is read from it. * marks the point of attachment. γGlu = O=C(O)[C@H](CCC(=O)[*:2])N[*:1]; Palmitoyl = CCCCCCCCCCCCCCCC(=O)*; Aib = CC(C)(N)C(=O)O

test system: female diabetic db/db mice; assay: Acute effects after s.c. treatment on blood glucose in non-fasting female diabetic db/db mice; type: in vivo; details: single 30 μg/kg s.c.
Method: Female healthy, lean BKS.Cg-(lean)/OlaHsd and diabetes-prone, obese BKS.Cg-+Lepr^db/+Lepr^db/OlaHsd mice were ordered group housed from Envigo RMS Inc., shipped group housed and remained group housed in shoebox caging with wood chip bedding until day 15 of the predose phase. At the study start mice were approximately 12 weeks old.
Mice were housed under vivarium conditions including a 12 h light/dark cycle (light phase 04:00 AM-4:00 PM), room temperatures between 23-26° C. and a relative humidity between 30-70%. All animals had free access to water and Purina Fomulab Diet 5008.
On predose day 9 blood glucose and body mass (approximately between 08:00-10:00 AM) as well as HbA1c measurements were performed. On day 15 of the predose phase animals were assigned to treatment groups (n=8) and to new cages to match mean HbA1c and body masses between all db/db groups. An age-matched lean group was included in the study as a healthy, lean reference.
Prior to day 1 of the dosing phase, the test article was diluted with Phosphate Buffered Saline (PBS, Gibco, without CaCl2 and MgCl2) to a concentration of 1 mg/mL and aliquots of this stock solution were stored at approximately ≤−60° C. On day 1 of the dosing phase the stock aliquot was thawed and the injected test article solution was prepared fresh by diluting it with PBS to achieve the desired concentration.
On Day 1 of the dosing phase db/db mice were either treated once with a s.c. injection of PBS-vehicle or 30 μg/kg test article. The lean reference group was treated once with a s.c. injection of PBS-vehicle. The dosing was initiated and completed between 08:00 and 10:00 AM. The applied volume was 5 ml/kg and the dose was adjusted to the most recent body mass recording of each individual.
Animals had unlimited access to water and feed during the experiment. On day 1 of the dosing phase approximately 5 μL of blood were collected via tail clips at minute −30 and 0 prior to any other inlife activities. At minute 0 mice received a s.c. dose of either PBS-vehicle or 30 μg/kg test article. Further blood samples were harvested at hour 0.25, 0.5, 1, 1.5, 2, 3, 4, 6, 8, and 24 post-dose. Glucose measurements were performed in whole blood using AlphaTRAK glucometers. If the glucose concentrations of two measurements differed by more than 20 mg/dL a third value was recorded. The Area Under the Curve (AUC) for blood glucose was calculated via the trapezoid method and for the duration of the 24 post-dose hours.
In the Figures data are depicted as means±SEM. […] A One Way Analysis of Variance and multiple comparisons (Dunnett's Method) were performed comparing the group of diabetic, obese db/db vehicle mice (n=8) with each diabetic, obese db/db test article treated mice (n=8). […] Non-diabetic, lean-vehicle group data are depicted in the Figures serving as a reference dataset for the non-obese, non-diabetic state.

Question: For CCCCCCCCCCCCCCCC(=O)N[C@@H](CCC(=O)N[C@@H](CCC(=O)NCCCC[C@H](NC(=O)[C@H](CC(C)C)NC(=O)[C@H](CCCCN)NC(=O)[C@H](CO)NC(=O)[C@H](CC(C)C)NC(=O)[C@H](CC(=O)O)NC(=O)[C@H](CO)NC(=O)[C@@H](NC(=O)[C@H](Cc1ccccc1)NC(=O)[C@@H](NC(=O)CNC(=O)[C@H](Cc1c[nH]cn1)NC(=O)C(C)(C)NC(=O)[C@@H](N)Cc1c[nH]cn1)[C@@H](C)O)[C@@H](C)O)C(=O)N[C@@H](CCC(=O)O)C(=O)N[C@@H](CCC(=O)O)C(=O)N[C@@H](CCC(N)=O)C(=O)N[C@@H](CCCNC(=N)N)C(=O)N[C@@H](CCC(N)=O)C(=O)NC(C)(C)C(=O)N[C@@H](CCC(=O)O)C(=O)N[C@@H](Cc1ccccc1)C(=O)N[C@H](C(=O)N[C@@H](CCC(=O)O)C(=O)N[C@@H](Cc1c[nH]c2ccccc12)C(=O)N[C@@H](CC(C)C)C(=O)N[C@@H](CCCCN)C(=O)N[C@@H](C)C(=O)N[C@H](C)C(=O)NCC(=O)N[C@@H](Cc1c[nH]cn1)C(=O)N1CCC[C@H]1C(=O)N[C@@H](CO)C(=O)NC(C)(C)C(=O)N[C@@H](CCCCN)C(=O)N1CCC[C@H]1C(=O)N1CCC[C@H]1C(=O)N1CCC[C@H]1C(=O)N[C@@H](CCCCN)C(N)=O)[C@@H](C)CC)C(=O)O)C(=O)O [SEQ ID NO: 13, H-Aib-H-G-T-F-T-S-D-L-S-K-L-K[gGlu-gGlu-Palm]-E-E-Q-R-Q-Aib-E-F-I-E-W-L-K-A-dAla-G-H-P-S-Aib-K-P-P-P-K-NH2] (H-H[Aib]HGTFTSDLSKLK([γGlu-γGlu-Palmitoyl])EEQRQ[Aib]EFIEWLKA[dA]GHPS[Aib]KPPPK-NH2), which “time to normalise hyperglycemia to the non-fasting blood glucose concentrations of lean reference mice” value is on record?
Answer: ≤ 6 h

Question: With CCCCCCCCCCCCCCCC(=O)N[C@@H](CCC(=O)NCCCC[C@H](NC(=O)[C@H](CC(C)C)NC(=O)[C@H](CCCCN)NC(=O)[C@H](CO)NC(=O)[C@H](CC(C)C)NC(=O)[C@H](CC(=O)O)NC(=O)[C@H](CO)NC(=O)[C@@H](NC(=O)[C@H](Cc1ccccc1)NC(=O)[C@@H](NC(=O)CNC(=O)[C@H](Cc1c[nH]cn1)NC(=O)C(C)(C)NC(=O)[C@@H](N)Cc1c[nH]cn1)[C@@H](C)O)[C@@H](C)O)C(=O)N[C@@H](CCC(=O)O)C(=O)N[C@@H](CCC(=O)O)C(=O)N[C@@H](CCC(N)=O)C(=O)N[C@@H](CCCNC(=N)N)C(=O)N[C@@H](CCC(N)=O)C(=O)NC(C)(C)C(=O)N[C@@H](CCC(=O)O)C(=O)N[C@@H](Cc1ccccc1)C(=O)N[C@H](C(=O)N[C@@H](CCC(=O)O)C(=O)N[C@@H](Cc1c[nH]c2ccccc12)C(=O)N[C@@H](CC(C)C)C(=O)N[C@@H](CCCCN)C(=O)N[C@@H](C)C(=O)N[C@H](C)C(=O)NCC(=O)N1CCC[C@H]1C(=O)N1CCC[C@H]1C(=O)N[C@@H](CO)C(=O)NC(C)(C)C(=O)N[C@@H](CCCCN)C(=O)N1CCC[C@H]1C(=O)N1CCC[C@H]1C(=O)N1CCC[C@H]1C(=O)N[C@@H](CCCCN)C(N)=O)[C@@H](C)CC)C(=O)O [SEQ ID NO: 16, H-Aib-H-G-T-F-T-S-D-L-S-K-L-K[gGlu-Palm]-E-E-Q-R-Q-Aib-E-F-I-E-W-L-K-A-dAla-G-P-P-S-Aib-K-P-P-P-K-NH2] (H-H[Aib]HGTFTSDLSKLK([γGlu-Palmitoyl])EEQRQ[Aib]EFIEWLKA[dA]GPPS[Aib]KPPPK-NH2) as the compound, how does the “time to normalise hyperglycemia to the non-fasting blood glucose concentrations of lean reference mice” value read?
Answer: ≤ 6 h

Question: For CCCCCCCCCCCCCCCC(=O)N[C@@H](CCC(=O)N[C@@H](CCC(=O)NCCCC[C@H](NC(=O)[C@H](CC(C)C)NC(=O)[C@H](CCCCN)NC(=O)[C@H](CO)NC(=O)[C@H](CC(C)C)NC(=O)[C@H](CC(=O)O)NC(=O)[C@H](CO)NC(=O)[C@@H](NC(=O)[C@H](Cc1ccccc1)NC(=O)[C@@H](NC(=O)CNC(=O)[C@H](Cc1c[nH]cn1)NC(=O)C(C)(C)NC(=O)[C@@H](N)Cc1c[nH]cn1)[C@@H](C)O)[C@@H](C)O)C(=O)N[C@@H](CCC(=O)O)C(=O)N[C@@H](CCC(=O)O)C(=O)N[C@@H](CCC(N)=O)C(=O)N[C@@H](CCCNC(=N)N)C(=O)N[C@@H](CCC(N)=O)C(=O)N[C@@H](CCCCN)C(=O)N[C@@H](CCC(=O)O)C(=O)N[C@@H](Cc1ccccc1)C(=O)N[C@H](C(=O)N[C@@H](CCC(=O)O)C(=O)N[C@@H](Cc1c[nH]c2ccccc12)C(=O)N[C@@H](CC(C)C)C(=O)N[C@@H](CCCCN)C(=O)N[C@@H](C)C(=O)NCC(=O)NCC(=O)N[C@@H](Cc1c[nH]cn1)C(=O)N1CCC[C@H]1C(=O)N[C@@H](CO)C(=O)NC(C)(C)C(=O)N[C@@H](CCCCN)C(=O)N1CCC[C@H]1C(=O)N1CCC[C@H]1C(=O)N1CCC[C@H]1C(=O)N[C@@H](CCCCN)C(N)=O)[C@@H](C)CC)C(=O)O)C(=O)O [SEQ ID NO: 6, H-Aib-H-G-T-F-T-S-D-L-S-K-L-K[gGlu-gGlu-Palm]-E-E-Q-R-Q-K-E-F-I-E-W-L-K-A-G-G-H-P-S-Aib-K-P-P-P-K-NH2], which “time to normalise hyperglycemia to the non-fasting blood glucose concentrations of lean reference mice” value is on record?
Answer: ≤ 6 h

Question: CCCCCCCCCCCCCCCC(=O)N[C@@H](CCC(=O)N[C@@H](CCC(=O)NCCCC[C@H](NC(=O)[C@H](CC(C)C)NC(=O)[C@H](CCCCN)NC(=O)[C@H](CO)NC(=O)[C@H](CC(C)C)NC(=O)[C@H](CC(=O)O)NC(=O)[C@H](CO)NC(=O)[C@@H](NC(=O)[C@H](Cc1ccccc1)NC(=O)[C@@H](NC(=O)CNC(=O)[C@H](Cc1c[nH]cn1)NC(=O)C(C)(C)NC(=O)[C@@H](N)Cc1c[nH]cn1)[C@@H](C)O)[C@@H](C)O)C(=O)N[C@@H](CCC(=O)O)C(=O)N[C@@H](CCC(=O)O)C(=O)N[C@@H](CCC(N)=O)C(=O)N[C@@H](CCCNC(=N)N)C(=O)N[C@@H](CCC(N)=O)C(=O)NC(C)(C)C(=O)N[C@@H](CCC(=O)O)C(=O)N[C@@H](Cc1ccccc1)C(=O)N[C@H](C(=O)N[C@@H](CCC(=O)O)C(=O)N[C@@H](Cc1c[nH]c2ccccc12)C(=O)N[C@@H](CC(C)C)C(=O)N[C@@H](CCCCN)C(=O)N[C@@H](C)C(=O)NCC(=O)NCC(=O)N1CCC[C@H]1C(=O)N1CCC[C@H]1C(=O)N[C@@H](CO)C(=O)NC(C)(C)C(=O)N[C@@H](CCCCN)C(=O)N1CCC[C@H]1C(=O)N1CCC[C@H]1C(=O)N1CCC[C@H]1C(=O)N[C@@H](CCCCN)C(N)=O)[C@@H](C)CC)C(=O)O)C(=O)O [SEQ ID NO: 10, H-Aib-H-G-T-F-T-S-D-L-S-K-L-K[gGlu-gGlu-Palm]-E-E-Q-R-Q-Aib-E-F-I-E-W-L-K-A-G-G-P-P-S-Aib-K-P-P-P-K-NH2] was tested. Which “time to normalise hyperglycemia to the non-fasting blood glucose concentrations of lean reference mice” value did it give?
Answer: ≤ 6 h

Question: Which “time to normalise hyperglycemia to the non-fasting blood glucose concentrations of lean reference mice” value does the source give for “H-Aib-H-G-T-F-T-S-D-L-S-K-L-K[gGlu-gGlu-AEEA-Palm]-E-E-Q-R-Q-Aib-E-F-I-E-W-L-K-A-G-G-P-P-S-Aib-K-P-P-P-K-NH2 [SEQ ID NO: 26]” here?
Answer: ≤ 6 h

Question: With CCCCCCCCCCCCCCCC(=O)N[C@@H](CCC(=O)N[C@@H](CCC(=O)NCCCC[C@H](NC(=O)[C@H](CC(C)C)NC(=O)[C@H](CCCCN)NC(=O)[C@H](CO)NC(=O)[C@H](CC(C)C)NC(=O)[C@H](CC(=O)O)NC(=O)[C@H](CO)NC(=O)[C@@H](NC(=O)[C@H](Cc1ccccc1)NC(=O)[C@@H](NC(=O)CNC(=O)[C@H](Cc1c[nH]cn1)NC(=O)C(C)(C)NC(=O)[C@@H](N)Cc1c[nH]cn1)[C@@H](C)O)[C@@H](C)O)C(=O)N[C@@H](CCC(=O)O)C(=O)N[C@@H](CCC(=O)O)C(=O)N[C@@H](CCC(N)=O)C(=O)N[C@@H](CCCNC(=N)N)C(=O)N[C@@H](CCC(N)=O)C(=O)NC(C)(C)C(=O)N[C@@H](CCC(=O)O)C(=O)N[C@@H](Cc1ccccc1)C(=O)N[C@H](C(=O)N[C@@H](CCC(=O)O)C(=O)N[C@@H](Cc1c[nH]c2ccccc12)C(=O)N[C@@H](CC(C)C)C(=O)N[C@@H](CCCCN)C(=O)N[C@@H](C)C(=O)NCC(=O)NCC(=O)N[C@@H](Cc1c[nH]cn1)C(=O)N1CCC[C@H]1C(=O)N[C@@H](CO)C(=O)NC(C)(C)C(=O)N[C@@H](CCCCN)C(=O)N1CCC[C@H]1C(=O)N1CCC[C@H]1C(=O)N1CCC[C@H]1C(=O)N[C@@H](CCCCN)C(N)=O)[C@@H](C)CC)C(=O)O)C(=O)O [SEQ ID NO: 12, H-Aib-H-G-T-F-T-S-D-L-S-K-L-K[gGlu-gGlu-Palm]-E-E-Q-R-Q-Aib-E-F-I-E-W-L-K-A-G-G-H-P-S-Aib-K-P-P-P-K-NH2] as the compound, how does the “time to normalise hyperglycemia to the non-fasting blood glucose concentrations of lean reference mice” value read?
Answer: ≤ 6 h
